Results deposited as PubChem BioAssay AID1159578 (Peter MacCallum Cancer Centre, 2015).
Purpose: 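Genome-wide hunt for genes controlling movement of lymphatic endothelial cells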 (primary screen). Cells: human lymphatic endothelial cells. Reagent: siRNA pool against human genes, 40 nM. Time to read-out: 48 h after transfection. Read-out: 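High-content imaging of dye-stained cells in a scratch assay measures filled wound area and nuclei per well; duplicate means given as ratio to mock and robust z-score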. Scale: migration robust z-score: higher = faster migration into the scratch; nuclei per well: higher = more cells in the well. Rule for the call: 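Pools averaging fewer than 3300 nuclei are never called; remaining pools count as changed when migration robust z lies outside -2 to 2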. Calls: active = migration changed; inactive = no migration change, or too few cells.
The whole screen tested about 18,000 reagents; shown is a part drawn at random. About 1,030 of them (5.7%) count as active. 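Inactive calls also include pools with fewer than 3300 nuclei, whose migration was not assessed.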 The raw values are shown without normalisation. Unmarked entries are inactive. Not all columns of the deposit are shown. Reagent sequences are not shown.

Silencing of CDK12 resulted in: migration robust z-score 0.7; migration class with cell-count check migration z between -2 and 2; enough cells; nuclei per well, duplicate mean 5426. With knock-down of ECH1 the results were migration robust z-score 0.13; migration class with cell-count check migration z between -2 and 2; enough cells; nuclei per well, duplicate mean 5922. Knock-down of IL13RA2 resulted in: migration robust z-score 0.99; migration class with cell-count check migration z between -2 and 2; enough cells; nuclei per well, duplicate mean 5478. For LILRA4, the entry reads migration robust z-score -0.98; migration class with cell-count check migration z between -2 and 2; enough cells; nuclei per well, duplicate mean 5618. For GTF2E1 the deposit lists migration robust z-score -0.09; migration class with cell-count check migration z between -2 and 2; enough cells; nuclei per well, duplicate mean 6136. After knock-down of SNTG2 the results were migration robust z-score 0.29; migration class with cell-count check migration z between -2 and 2; enough cells; nuclei per well, duplicate mean 7127.

Depletion of FUT9 gave: migration robust z-score -0.3; migration class with cell-count check migration z between -2 and 2; enough cells; nuclei per well, duplicate mean 6582. With knock-down of CT47A2, the record shows migration robust z-score -2.44 (active); migration class with cell-count check migration z below -2; enough cells; nuclei per well, duplicate mean 5108. After knock-down of RBPJL, the screen gave migration robust z-score -1.68; migration class with cell-count check migration z between -2 and 2; enough cells; nuclei per well, duplicate mean 4322. Knock-down of CEP85L resulted in: migration robust z-score -1.25; migration class with cell-count check migration z between -2 and 2; enough cells; nuclei per well, duplicate mean 5640. MCM7 gave migration robust z-score 0.25; migration class with cell-count check migration z between -2 and 2; enough cells; nuclei per well, duplicate mean 7192. Knock-down of OGFOD3 came out at: migration robust z-score -1.12; migration class with cell-count check migration z between -2 and 2; enough cells; nuclei per well, duplicate mean 4764.

2 consecutive entries from above:
CT47A2: migration robust z-score = -2.44 (active); migration class with cell-count check = migration z below -2; enough cells; nuclei per well, duplicate mean = 5108
RBPJL: migration robust z-score = -1.68; migration class with cell-count check = migration z between -2 and 2; enough cells; nuclei per well, duplicate mean = 4322

The results go on.
Silencing of MEX3B came out at: migration robust z-score 1.87; migration class with cell-count check migration z between -2 and 2; enough cells; nuclei per well, duplicate mean 6220. Depletion of CHRNA2 resulted in: migration robust z-score 0.1; migration class with cell-count check migration z between -2 and 2; enough cells; nuclei per well, duplicate mean 5958. DNAJC17 scored migration robust z-score -0.54; migration class with cell-count check migration z between -2 and 2; enough cells; nuclei per well, duplicate mean 5010. FBXO31 scored migration robust z-score 0.55; migration class with cell-count check migration z between -2 and 2; enough cells; nuclei per well, duplicate mean 5468. After knock-down of WDR64, the screen gave migration robust z-score 0.05; migration class with cell-count check migration z between -2 and 2; enough cells; nuclei per well, duplicate mean 6306. ZNF337 showed migration robust z-score 1.62; migration class with cell-count check migration z between -2 and 2; enough cells; nuclei per well, duplicate mean 7194.

With knock-down of BICDL1 the results were migration robust z-score -0.14; migration class with cell-count check migration z between -2 and 2; enough cells; nuclei per well, duplicate mean 5482. Depletion of TBC1D3F came out at: migration robust z-score 1.57; migration class with cell-count check migration z between -2 and 2; enough cells; nuclei per well, duplicate mean 6570. MAP2 scored migration robust z-score 0.52; migration class with cell-count check migration z between -2 and 2; enough cells; nuclei per well, duplicate mean 7516.
